The results in this text go back to PMC10936212.

Series [1] concerns the target T1, CosR (Campylobacter jejuni) (UniProt A0A3H9R6A1). In words: cryo-EM. The settings on record: 20 uM CosR, 10 uM DNA, apo, complex and free DNA classes seen, only apo model (8UUZ) deposited; recombinant protein; protein details: C-terminal 6xHis.
Series [2] deals with T1, CosR (Campylobacter jejuni). The series is described as follows: X-ray crystallography. The settings on record: recombinant protein, protein details: C-terminal 6xHis.

Construct, isoform or probe ends are uncertain for at least one entry.

Turning to “AATAATTTTATTAACCAAAATTAAGATATAATTAGCCAAA (double strand) [40 bp cmeABC promoter DNA]”, in series [1], the binding result was “binds”. Take “AATTAAGATATTATTAACCAA (double strand) [DNA2 (crystal)]”: in series [2] (2.20 A, one dimer per duplex), the binding result is on record as “binds”. As to “TATTAACCAAAATTAAGATAT (double strand) [DNA1 (crystal)]”, the binding result in series [2] (2.90 A, dimer bridges two DNA1 duplexes) was “binds”.
